Data as given in paper PMC10970439.
These are yes or no findings as the source states them, for the method shown. Binding seen in cells or lysates may run through a third protein. One block for each molecule: values may come before it.

Amino acid sequences for entries named in this document (tags omitted).
UniProt Q16665: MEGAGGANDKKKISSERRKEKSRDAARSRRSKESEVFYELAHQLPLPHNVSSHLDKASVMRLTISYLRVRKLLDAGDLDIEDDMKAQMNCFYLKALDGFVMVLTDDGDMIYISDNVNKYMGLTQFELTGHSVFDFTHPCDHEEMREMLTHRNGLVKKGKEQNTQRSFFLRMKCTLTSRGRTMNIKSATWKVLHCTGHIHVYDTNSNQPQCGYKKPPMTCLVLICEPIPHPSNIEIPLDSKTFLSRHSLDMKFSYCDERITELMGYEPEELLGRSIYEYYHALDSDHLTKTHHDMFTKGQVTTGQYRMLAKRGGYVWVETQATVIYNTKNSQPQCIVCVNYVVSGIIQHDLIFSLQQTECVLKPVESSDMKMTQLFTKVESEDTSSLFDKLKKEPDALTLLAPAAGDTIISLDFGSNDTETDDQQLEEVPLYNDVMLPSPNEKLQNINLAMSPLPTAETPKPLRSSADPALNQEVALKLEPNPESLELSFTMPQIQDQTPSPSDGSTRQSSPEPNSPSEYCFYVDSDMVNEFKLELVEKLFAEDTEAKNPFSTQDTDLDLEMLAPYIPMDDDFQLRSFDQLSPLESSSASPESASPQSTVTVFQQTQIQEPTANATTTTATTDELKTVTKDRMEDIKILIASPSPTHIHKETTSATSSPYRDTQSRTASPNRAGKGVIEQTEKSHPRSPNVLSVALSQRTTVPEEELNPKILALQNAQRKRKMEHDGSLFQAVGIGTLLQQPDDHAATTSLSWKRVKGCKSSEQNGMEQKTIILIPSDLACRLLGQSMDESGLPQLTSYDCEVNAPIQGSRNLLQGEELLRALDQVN
UniProt P27540: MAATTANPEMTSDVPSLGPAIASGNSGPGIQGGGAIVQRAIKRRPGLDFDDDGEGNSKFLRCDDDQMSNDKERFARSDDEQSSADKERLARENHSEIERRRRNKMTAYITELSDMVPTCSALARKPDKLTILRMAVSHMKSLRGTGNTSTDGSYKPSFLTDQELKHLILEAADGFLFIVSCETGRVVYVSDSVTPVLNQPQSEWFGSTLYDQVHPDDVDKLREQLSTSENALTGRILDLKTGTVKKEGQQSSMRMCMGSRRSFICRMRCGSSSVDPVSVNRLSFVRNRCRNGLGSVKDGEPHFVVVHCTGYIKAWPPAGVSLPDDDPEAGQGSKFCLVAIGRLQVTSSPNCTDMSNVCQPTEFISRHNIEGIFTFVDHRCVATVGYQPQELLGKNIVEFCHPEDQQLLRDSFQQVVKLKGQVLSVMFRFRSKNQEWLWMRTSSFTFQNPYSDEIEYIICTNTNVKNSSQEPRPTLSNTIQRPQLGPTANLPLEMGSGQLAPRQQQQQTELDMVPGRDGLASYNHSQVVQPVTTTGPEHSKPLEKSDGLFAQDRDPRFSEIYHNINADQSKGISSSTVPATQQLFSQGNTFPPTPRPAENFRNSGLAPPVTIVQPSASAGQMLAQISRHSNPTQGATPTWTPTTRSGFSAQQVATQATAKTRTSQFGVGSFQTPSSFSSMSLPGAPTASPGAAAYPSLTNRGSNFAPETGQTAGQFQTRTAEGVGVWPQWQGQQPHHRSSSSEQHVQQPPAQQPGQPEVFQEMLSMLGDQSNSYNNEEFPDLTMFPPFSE
UniProt P20700: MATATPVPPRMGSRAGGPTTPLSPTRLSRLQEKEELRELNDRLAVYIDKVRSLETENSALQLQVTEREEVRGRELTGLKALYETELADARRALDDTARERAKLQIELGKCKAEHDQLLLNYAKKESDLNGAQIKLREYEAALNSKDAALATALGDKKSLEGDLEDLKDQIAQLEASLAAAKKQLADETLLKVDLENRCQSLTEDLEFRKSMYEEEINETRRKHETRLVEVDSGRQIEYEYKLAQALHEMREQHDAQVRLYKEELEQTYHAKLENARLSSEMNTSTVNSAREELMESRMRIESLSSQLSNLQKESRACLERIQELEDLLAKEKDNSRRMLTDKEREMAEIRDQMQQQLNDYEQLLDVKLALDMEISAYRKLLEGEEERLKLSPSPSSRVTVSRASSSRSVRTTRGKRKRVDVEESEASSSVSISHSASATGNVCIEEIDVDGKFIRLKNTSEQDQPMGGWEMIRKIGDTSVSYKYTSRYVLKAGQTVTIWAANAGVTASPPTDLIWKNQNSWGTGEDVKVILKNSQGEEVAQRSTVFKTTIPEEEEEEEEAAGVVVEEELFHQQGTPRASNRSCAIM

Legend:
[1] = target: IFI16 (human (endogenous in AB8/13 podocytes)) (UniProt Q16666); assay: co-IP; nuclear lysates of AB8/13 podocytes untreated (DMSO) or treated with 100 µM roxadustat for 4 h; Nuclear Complex Co-IP Kit (Active Motif); anti-HIF-1α, anti-IFI16 or control IgG overnight at 4 °C, protein A/G plus agarose beads; 500 µg immunoprecipitated, immunoblot
[2] = target: hypoxia-inducible factor (HIF)-1α (human (endogenous in AB8/13 podocytes)) (UniProt Q16665); assay: as above
[3] = target: T1, hypoxia-inducible factor (HIF)-1α (human (endogenous in AB8/13 podocytes)), Q16665; assay: as above; settings: remark: other sources report otherwise
[4] = target: T1, hypoxia-inducible factor (HIF)-1α …; assay: co-IP; nuclear fraction of AB8/13 podocytes, anti-HIF-1α precipitates, low-stringency buffers; settings: remark: other sources report otherwise

binding [1]: no binding
Molecule: HIF-1β (from UniProt P27540 1-789)

binding [2]: no binding
Molecule: lamin B1 (from UniProt P20700 1-586)

binding [3]: no binding | binding [4]: no binding
B1: IFI16, Q16666 1-785 (protein)
chain: MGKKYKNIVLLKGLEVINDYHFRMVKSLLSNDLKLNLKMREEYDKIQIADLMEEKFRGDAGLGKLIKIFEDIPTLEDLAETLKKEKLKVKGPALSRKRKKEVDATSPAPSTSSTVKTEGAEATPGAQKRKKSTKEKAGPKGSKVSEEQTQPPSPAGAGMSTAMGRSPSPKTSLSAPPNSSSTENPKTVAKCQVTPRRNVLQKRPVIVKVLSTTKPFEYETPEMEKKIMFHATVATQTQFFHVKVLNTSLKEKFNGKKIIIISDYLEYDSLLEVNEESTVSEAGPNQTFEVPNKIINRAKETLKIDILHKQASGNIVYGVFMLHKKTVNQKTTIYEIQDDRGKMDVVGTGQCHNIPCEEGDKLQLFCFRLRKKNQMSKLISEMHSFIQIKKKTNPRNNDPKSMKLPQEQRQLPYPSEASTTFPESHLRTPQMPPTTPSSSFFTKKSEDTISKMNDFMRMQILKEGSHFPGPFMTSIGPAESHPHTPQMPPSTPSSSFLTTKSEDTISKMNDFMRMQILKEGSHFPGPFMTSIGPAESHPHTPQMPPSTPSSSFLTTLKPRLKTEPEEVSIEDSAQSDLKEVMVLNATESFVYEPKEQKKMFHATVATENEVFRVKVFNIDLKEKFTPKKIIAIANYVCRNGFLEVYPFTLVADVNADRNMEIPKGLIRSASVTPKINQLCSQTKGSFVNGVFEVHKKNVRGEFTYYEIQDNTGKMEVVVHGRLTTINCEEGDKLKLTCFELAPKSGNTGELRSVIHSHIKVIKTRKNKKDILNPDSSMETSPDFFF
